PubChem BioAssay AID743454, Peter MacCallum Cancer Centre, 2014

Assay: 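Genes whose loss kills vorinostat-resistant colon cancer cells under vorinostat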 (primary screen)
Cells: human HCT116-VR colon cancer cells, selected for vorinostat resistance
Knock-down reagent: siRNA pool against human genes, 40 nM siRNA pool
Timing: vorinostat for 24 h, read-out about 72 h after transfection
Conditions: vorinostat at 2.5 µM final
Read-out: 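Cell viability by CellTiter-Fluor and caspase 3/7 activity by luminescence, each scaled to mock wells per plate, duplicates averaged, then robust z-scored over all plates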
Scale: viability robust z-score: higher = more viable cells than screen typical; caspase robust z-score: higher = more caspase 3/7 activity than screen typical
Hit rule: 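Hits are knock-downs in viability class RV1/RV2 or caspase class CA1/CA2, excluding ones that killed cells in the no-drug cell-count arm; hits then retested with single siRNAs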
The deposit covers about 18,000 reagents; this is a random part of them. 450 of them (2.5%) were called active. 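Single biological run; no consistent viability z cut-off exists, so the class columns, not z-scores, define the calls.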

SLC25A52 — viability hit class = no change; caspase hit class = no change; viability robust z-score = -0.84; caspase robust z-score = 1.26; activity call = inactive
TEX264 (testis expressed 264, ER-phagy receptor) — viability hit class = no change; caspase hit class = no change; viability robust z-score = 1.03; caspase robust z-score = -0.29; activity call = inactive
BAIAP2 (BAR/IMD domain containing adaptor protein 2) — viability hit class = no change; caspase hit class = no change; viability robust z-score = 1.19; caspase robust z-score = -0.44; activity call = inactive
ALG9 (ALG9 alpha-1,2-mannosyltransferase) — viability hit class = no change; caspase hit class = no change; viability robust z-score = 0.08; caspase robust z-score = 2.34; activity call = inactive
TRAF3IP2 (TRAF3 interacting protein 2) — viability hit class = no change; caspase hit class = no change; viability robust z-score = 1.45; caspase robust z-score = -0.5; activity call = inactive
TPI1 (triosephosphate isomerase 1) — viability hit class = no change; caspase hit class = no change; viability robust z-score = 0.73; caspase robust z-score = -0.18; activity call = inactive
ARPC2 (actin related protein 2/3 complex subunit 2) — viability hit class = no change; caspase hit class = no change; viability robust z-score = 0.02; caspase robust z-score = -0.31; activity call = inactive
SGF29 (SAGA complex associated factor 29) — viability hit class = no change; caspase hit class = no change; viability robust z-score = -0.05; caspase robust z-score = 4.4; activity call = inactive
AKR1C1 (aldo-keto reductase family 1 member C1) — viability hit class = no change; caspase hit class = no change; viability robust z-score = -0.12; caspase robust z-score = 2.96; activity call = inactive
POU2AF2 (POU class 2 homeobox associating factor 2) — viability hit class = no change; caspase hit class = no change; viability robust z-score = 0.7; caspase robust z-score = 0.88; activity call = inactive
AKAP10 (A-kinase anchoring protein 10) — viability hit class = RV2 (reduced viability); caspase hit class = no change; viability robust z-score = -3.78; caspase robust z-score = 4.1; activity call = active
HTR3C (5-hydroxytryptamine receptor 3C) — viability hit class = no change; caspase hit class = no change; viability robust z-score = -0.2; caspase robust z-score = -0.94; activity call = inactive

2 neighbouring records from above:
BAIAP2 (BAR/IMD domain containing adaptor protein 2) — viability hit class = no change; caspase hit class = no change; viability robust z-score = 1.19; caspase robust z-score = -0.44; activity call = inactive
ALG9 (ALG9 alpha-1,2-mannosyltransferase) — viability hit class = no change; caspase hit class = no change; viability robust z-score = 0.08; caspase robust z-score = 2.34; activity call = inactive
